# Assay results from the supplement of paper PMC10849652.
# Sequences of proteins named here, by UniProt entry; tags and fusion partners are left off. A change or cut given only in a name is not applied to a line headed by its entry.
# UniProt Q9HAS0: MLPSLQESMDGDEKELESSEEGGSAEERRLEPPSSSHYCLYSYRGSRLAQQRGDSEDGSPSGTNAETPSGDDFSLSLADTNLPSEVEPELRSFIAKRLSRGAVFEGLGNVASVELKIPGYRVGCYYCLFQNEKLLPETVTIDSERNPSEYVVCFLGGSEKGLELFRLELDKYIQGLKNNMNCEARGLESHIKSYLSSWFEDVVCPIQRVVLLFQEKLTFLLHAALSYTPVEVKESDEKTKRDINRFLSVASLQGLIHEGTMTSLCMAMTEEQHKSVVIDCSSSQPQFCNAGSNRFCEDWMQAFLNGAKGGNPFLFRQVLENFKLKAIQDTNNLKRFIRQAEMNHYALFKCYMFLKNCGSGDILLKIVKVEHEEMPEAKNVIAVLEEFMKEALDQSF
# UniProt P27797, whole entry, looked up: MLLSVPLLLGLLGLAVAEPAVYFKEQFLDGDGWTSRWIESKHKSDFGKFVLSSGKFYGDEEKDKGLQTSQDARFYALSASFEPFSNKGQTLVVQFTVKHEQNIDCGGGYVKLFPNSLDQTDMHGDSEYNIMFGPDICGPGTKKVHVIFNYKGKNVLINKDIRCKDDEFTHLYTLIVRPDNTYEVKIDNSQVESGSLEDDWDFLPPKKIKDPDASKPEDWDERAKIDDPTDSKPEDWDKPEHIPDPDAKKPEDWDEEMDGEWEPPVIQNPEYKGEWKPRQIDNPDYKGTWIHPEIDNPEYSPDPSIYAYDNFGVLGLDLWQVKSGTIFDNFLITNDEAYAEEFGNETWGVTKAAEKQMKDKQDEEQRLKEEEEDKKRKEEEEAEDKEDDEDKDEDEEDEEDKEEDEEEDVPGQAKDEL
# UniProt Q8WUR7: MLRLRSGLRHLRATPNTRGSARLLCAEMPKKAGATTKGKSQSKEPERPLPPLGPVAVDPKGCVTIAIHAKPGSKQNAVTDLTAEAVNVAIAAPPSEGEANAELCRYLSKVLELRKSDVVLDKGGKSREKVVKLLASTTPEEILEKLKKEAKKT
# UniProt P41223: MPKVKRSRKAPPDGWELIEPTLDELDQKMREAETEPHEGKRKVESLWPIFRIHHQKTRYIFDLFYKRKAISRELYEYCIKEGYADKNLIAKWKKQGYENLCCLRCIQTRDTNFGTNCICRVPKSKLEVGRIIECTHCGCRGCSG
# UniProt Q10589, whole entry, looked up: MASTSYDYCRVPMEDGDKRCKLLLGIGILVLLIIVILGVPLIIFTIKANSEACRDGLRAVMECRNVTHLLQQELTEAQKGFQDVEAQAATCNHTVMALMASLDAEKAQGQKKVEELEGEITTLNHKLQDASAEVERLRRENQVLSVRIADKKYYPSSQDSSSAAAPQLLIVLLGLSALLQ
# UniProt Q5T6V5: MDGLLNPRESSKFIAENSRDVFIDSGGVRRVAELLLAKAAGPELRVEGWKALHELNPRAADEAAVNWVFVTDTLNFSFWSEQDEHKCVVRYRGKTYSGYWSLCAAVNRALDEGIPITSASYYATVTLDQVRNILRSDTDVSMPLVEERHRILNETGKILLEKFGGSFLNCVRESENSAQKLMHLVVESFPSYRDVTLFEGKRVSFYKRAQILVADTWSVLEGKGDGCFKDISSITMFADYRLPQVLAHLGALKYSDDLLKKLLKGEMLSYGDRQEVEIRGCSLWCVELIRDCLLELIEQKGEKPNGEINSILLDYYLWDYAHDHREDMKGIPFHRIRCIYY
# UniProt Q6P5X5: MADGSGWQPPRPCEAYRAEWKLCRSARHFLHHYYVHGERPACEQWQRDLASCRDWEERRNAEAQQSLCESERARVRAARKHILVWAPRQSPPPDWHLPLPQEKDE
# UniProt Q5JPI3: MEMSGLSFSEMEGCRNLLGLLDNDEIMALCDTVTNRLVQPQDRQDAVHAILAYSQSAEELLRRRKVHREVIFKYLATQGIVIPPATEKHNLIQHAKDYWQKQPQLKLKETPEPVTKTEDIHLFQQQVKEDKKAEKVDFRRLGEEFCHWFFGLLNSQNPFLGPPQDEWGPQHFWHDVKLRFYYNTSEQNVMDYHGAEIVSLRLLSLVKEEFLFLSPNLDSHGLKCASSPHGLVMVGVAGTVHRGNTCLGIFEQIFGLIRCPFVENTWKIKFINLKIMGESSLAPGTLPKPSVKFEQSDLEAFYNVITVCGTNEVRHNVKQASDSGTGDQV
# UniProt P05937: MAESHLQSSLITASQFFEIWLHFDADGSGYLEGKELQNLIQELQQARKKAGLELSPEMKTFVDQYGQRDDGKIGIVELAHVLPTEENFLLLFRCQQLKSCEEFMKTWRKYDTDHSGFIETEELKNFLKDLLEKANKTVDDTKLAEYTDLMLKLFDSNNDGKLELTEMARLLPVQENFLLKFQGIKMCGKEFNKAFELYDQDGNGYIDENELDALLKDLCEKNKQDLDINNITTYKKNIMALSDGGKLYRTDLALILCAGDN
# UniProt Q96GQ5: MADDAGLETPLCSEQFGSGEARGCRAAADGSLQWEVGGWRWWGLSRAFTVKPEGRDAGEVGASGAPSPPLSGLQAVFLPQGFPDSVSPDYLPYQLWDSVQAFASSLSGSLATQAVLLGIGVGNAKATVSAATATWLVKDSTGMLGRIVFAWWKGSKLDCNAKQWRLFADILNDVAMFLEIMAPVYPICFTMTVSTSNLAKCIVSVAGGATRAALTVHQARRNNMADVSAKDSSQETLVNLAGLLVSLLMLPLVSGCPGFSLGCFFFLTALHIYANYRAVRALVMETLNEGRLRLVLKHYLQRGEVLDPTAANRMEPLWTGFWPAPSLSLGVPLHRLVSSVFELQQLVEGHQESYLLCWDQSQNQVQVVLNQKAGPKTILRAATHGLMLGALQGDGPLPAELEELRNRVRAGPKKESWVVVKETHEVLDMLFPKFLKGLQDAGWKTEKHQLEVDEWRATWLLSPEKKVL
# UniProt Q96LT7: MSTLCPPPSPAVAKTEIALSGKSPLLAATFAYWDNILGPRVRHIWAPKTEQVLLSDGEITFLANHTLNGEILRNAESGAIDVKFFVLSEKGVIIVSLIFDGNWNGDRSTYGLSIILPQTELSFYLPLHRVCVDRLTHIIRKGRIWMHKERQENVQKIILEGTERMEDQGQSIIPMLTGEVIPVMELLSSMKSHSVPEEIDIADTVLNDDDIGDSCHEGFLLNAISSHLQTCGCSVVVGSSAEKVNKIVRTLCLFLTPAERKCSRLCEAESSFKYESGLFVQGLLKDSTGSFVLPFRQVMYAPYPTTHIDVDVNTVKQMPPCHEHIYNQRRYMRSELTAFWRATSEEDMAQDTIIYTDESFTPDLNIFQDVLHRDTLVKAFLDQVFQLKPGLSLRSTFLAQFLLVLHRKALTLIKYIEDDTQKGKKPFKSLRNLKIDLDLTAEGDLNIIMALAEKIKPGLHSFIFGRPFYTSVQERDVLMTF
# UniProt Q8N1A6: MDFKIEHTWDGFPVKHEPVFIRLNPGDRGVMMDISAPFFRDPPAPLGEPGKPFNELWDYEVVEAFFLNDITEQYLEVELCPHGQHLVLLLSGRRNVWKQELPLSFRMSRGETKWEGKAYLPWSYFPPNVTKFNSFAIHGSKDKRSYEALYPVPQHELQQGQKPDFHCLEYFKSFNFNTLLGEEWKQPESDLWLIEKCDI
# UniProt Q9H3J6: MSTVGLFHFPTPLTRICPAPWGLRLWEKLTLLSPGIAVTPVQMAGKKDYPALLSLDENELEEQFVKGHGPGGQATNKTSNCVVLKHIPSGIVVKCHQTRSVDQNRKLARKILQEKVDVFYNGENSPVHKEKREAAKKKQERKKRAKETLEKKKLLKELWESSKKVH
# UniProt Q9Y2V0: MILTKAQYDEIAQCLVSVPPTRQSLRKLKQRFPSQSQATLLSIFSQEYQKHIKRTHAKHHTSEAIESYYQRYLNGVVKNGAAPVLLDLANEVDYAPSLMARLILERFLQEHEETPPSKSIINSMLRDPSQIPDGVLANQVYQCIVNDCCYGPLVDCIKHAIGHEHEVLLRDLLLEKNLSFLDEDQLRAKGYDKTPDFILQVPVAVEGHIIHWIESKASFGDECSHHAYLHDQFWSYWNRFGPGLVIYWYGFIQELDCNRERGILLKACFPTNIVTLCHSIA
# UniProt Q5T5Y3: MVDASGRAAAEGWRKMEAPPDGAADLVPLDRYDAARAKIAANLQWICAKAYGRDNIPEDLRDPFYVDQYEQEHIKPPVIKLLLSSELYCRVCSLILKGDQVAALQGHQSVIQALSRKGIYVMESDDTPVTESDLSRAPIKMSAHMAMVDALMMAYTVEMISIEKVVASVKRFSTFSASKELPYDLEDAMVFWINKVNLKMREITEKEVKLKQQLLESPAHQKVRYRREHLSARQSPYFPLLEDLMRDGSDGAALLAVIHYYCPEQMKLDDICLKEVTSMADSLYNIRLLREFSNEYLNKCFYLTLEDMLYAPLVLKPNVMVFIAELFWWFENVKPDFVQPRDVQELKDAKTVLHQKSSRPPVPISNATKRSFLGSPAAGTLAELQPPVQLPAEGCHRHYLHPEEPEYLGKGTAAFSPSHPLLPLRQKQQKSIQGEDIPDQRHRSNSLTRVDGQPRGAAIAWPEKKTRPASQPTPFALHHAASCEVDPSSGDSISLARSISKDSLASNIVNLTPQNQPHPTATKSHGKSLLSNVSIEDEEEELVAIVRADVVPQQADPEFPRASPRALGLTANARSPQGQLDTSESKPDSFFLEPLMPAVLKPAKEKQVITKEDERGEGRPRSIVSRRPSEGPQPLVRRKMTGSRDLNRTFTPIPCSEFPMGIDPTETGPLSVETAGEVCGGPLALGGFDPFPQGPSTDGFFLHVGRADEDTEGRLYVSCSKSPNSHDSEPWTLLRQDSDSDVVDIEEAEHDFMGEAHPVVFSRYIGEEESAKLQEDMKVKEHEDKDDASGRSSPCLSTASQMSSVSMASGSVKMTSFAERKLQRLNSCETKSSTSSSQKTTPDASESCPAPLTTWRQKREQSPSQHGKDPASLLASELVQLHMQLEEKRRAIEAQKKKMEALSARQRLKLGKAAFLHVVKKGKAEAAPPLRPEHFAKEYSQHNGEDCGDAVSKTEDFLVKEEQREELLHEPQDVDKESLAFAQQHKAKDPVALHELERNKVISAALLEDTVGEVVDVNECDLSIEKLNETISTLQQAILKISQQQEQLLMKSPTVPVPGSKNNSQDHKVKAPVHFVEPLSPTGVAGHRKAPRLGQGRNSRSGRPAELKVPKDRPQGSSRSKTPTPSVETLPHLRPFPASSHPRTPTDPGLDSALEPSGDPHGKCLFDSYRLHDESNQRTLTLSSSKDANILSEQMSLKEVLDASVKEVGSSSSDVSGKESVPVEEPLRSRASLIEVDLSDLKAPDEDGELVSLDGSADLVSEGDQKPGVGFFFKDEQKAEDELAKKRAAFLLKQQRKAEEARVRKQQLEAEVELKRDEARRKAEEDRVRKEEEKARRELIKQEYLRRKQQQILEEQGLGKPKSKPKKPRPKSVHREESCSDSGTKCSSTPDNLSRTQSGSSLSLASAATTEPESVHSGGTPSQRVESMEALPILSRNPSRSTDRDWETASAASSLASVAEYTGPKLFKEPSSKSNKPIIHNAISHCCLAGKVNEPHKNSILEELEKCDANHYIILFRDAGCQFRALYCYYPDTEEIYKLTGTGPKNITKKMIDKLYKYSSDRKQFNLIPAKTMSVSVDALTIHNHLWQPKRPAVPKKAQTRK
# Some of the results follow.
# Experiments:
# Assay in all cases: log2 fold change, soluble protein after heating vs DMSO (PISA); higher = thermal stabilisation; K562 cells, 10 uM, 30 min; active = over 0.2 and 3.5 SD of the protein, either way, in both replicates (recomputed)
# [1] = compound: COC1=CC=C(C=C1)CN2C=CC3=C2C=C(C=C3)C(=O)NO
# In short: (§1)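 K562 cells at 2×10^6 cells/mL were treated with 10 μM compound for 30 min. Aliquots were heated for 3 min across 48°C-58°C, pooled, and extracted in PBS with 0.5% NP-40 at 4°C; soluble protein was the supernatant after 21,000xg for 90 min. Soluble protein was quantified by TMTpro 16plex LC-MS/MS with channel sums equalised, and reported as log2 fold change in thermal stability against DMSO controls, with values from duplicates.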
# filanesib = compound: CON(C)C(=O)N1N=C(c2cc(F)ccc2F)S[C@@]1(CCCN)c1ccccc1 [filanesib]
# In short: as §1
# zotarolimus = compound: CO[C@H]1C[C@@H]2CC[C@@H](C)[C@@](O)(O2)C(=O)C(=O)N2CCCC[C@H]2C(=O)O[C@H]([C@H](C)C[C@@H]2CC[C@H](n3cnnn3)[C@H](OC)C2)CC(=O)[C@H](C)/C=C(\C)[C@@H](O)[C@@H](OC)C(=O)[C@H](C)C[C@H](C)/C=C/C=C/C=C/1C [zotarolimus]
# In short: as §1
# idasanutlin = compound: COc1cc(C(=O)O)ccc1NC(=O)[C@@H]1N[C@@H](CC(C)(C)C)[C@](C#N)(c2ccc(Cl)cc2F)[C@H]1c1cccc(Cl)c1F [idasanutlin]
# In short: as §1
# alisertib = compound: COc1cc(Nc2ncc3c(n2)-c2ccc(Cl)cc2C(c2c(F)cccc2OC)=NC3)ccc1C(=O)O [alisertib]
# In short: as §1
# [2] = compound: COc1cc2nc(-c3cc(F)ccc3O)nc(N[C@@H]3CNC[C@H]3C(C)(C)O)c2cc1OC
# In short: as §1
# gefitinib = compound: COc1cc2ncnc(Nc3ccc(F)c(Cl)c3)c2cc1OCCCN1CCOCC1 [gefitinib]
# In short: as §1
# [3] = compound: COc1cccc2cc(-c3nc([C@H]4CC[C@H](C(=O)O)CC4)n4ncnc(N)c34)[nH]c12
# In short: as §1
# lapatinib = compound: CS(=O)(=O)CCNCc1ccc(-c2ccc3ncnc(Nc4ccc(OCc5cccc(F)c5)c(Cl)c4)c3c2)o1 [lapatinib]
# In short: as §1
# pictilisib = compound: CS(=O)(=O)N1CCN(Cc2cc3nc(-c4cccc5[nH]ncc45)nc(N4CCOCC4)c3s2)CC1 [pictilisib]
# In short: as §1
# [4] = compound: CS(=O)(=O)c1ccc(-c2cnc(N)c(C(=O)Nc3ccccc3)n2)cc1
# In short: as §1
# crizotinib = compound: C[C@@H](Oc1cc(-c2cnn(C3CCNCC3)c2)cnc1N)c1c(Cl)ccc(F)c1Cl [crizotinib]
# In short: as §1
# [5] = compound: C[C@@H]1COCCN1C2=NC(=NC(=C2)C3(CC3)S(=O)(=O)C)C4=C5C=CNC5=CC=C4
# In short: as §1
# [6] = compound: C[C@H](C1=CC=C(C=C1)C(=O)NC2=C3C=CNC3=NC=C2)N
# In short: as §1
# duvelisib = compound: C[C@H](Nc1ncnc2nc[nH]c12)c1cc2cccc(Cl)c2c(=O)n1-c1ccccc1 [duvelisib]
# In short: as §1
# gandotinib = compound: Cc1cc(Nc2cc(CN3CCOCC3)c3nc(C)c(Cc4ccc(Cl)cc4F)n3n2)n[nH]1 [gandotinib]
# In short: as §1
# tozasertib = compound: Cc1cc(Nc2cc(N3CCN(C)CC3)nc(Sc3ccc(NC(=O)C4CC4)cc3)n2)n[nH]1 [tozasertib]
# In short: as §1
# [7] = compound: Cc1cc(SCc2sc(-c3ccc(C(F)(F)F)cc3)nc2C)ccc1OCC(=O)O
# In short: as §1
# doramapimod = compound: Cc1ccc(-n2nc(C(C)(C)C)cc2NC(=O)Nc2ccc(OCCN3CCOCC3)c3ccccc23)cc1 [doramapimod]
# In short: as §1
# ispinesib = compound: Cc1ccc(C(=O)N(CCCN)[C@@H](c2nc3cc(Cl)ccc3c(=O)n2Cc2ccccc2)C(C)C)cc1 [ispinesib]
# In short: as §1
Target,log2 fold change [1],log2 fold change (filanesib),log2 fold change (zotarolimus),log2 fold change (idasanutlin),log2 fold change (alisertib),log2 fold change [2],log2 fold change (gefitinib),log2 fold change [3],log2 fold change (lapatinib),log2 fold change (pictilisib),log2 fold change [4],log2 fold change (crizotinib),log2 fold change [5],log2 fold change [6],log2 fold change (duvelisib),log2 fold change (gandotinib),log2 fold change (tozasertib),log2 fold change [7],log2 fold change (doramapimod),log2 fold change (ispinesib)
C17orf75 (UniProt Q9HAS0),inactive: -0.012,inactive: -0.037,inactive: 0.067,inactive: -0.065,inactive: 0,inactive: 0.012,inactive: 0.035,inactive: 0.022,inactive: 0.08,inactive: 0.028,inactive: 0.065,inactive: -0.007,inactive: -0.05,inactive: -0.025,inactive: 0.008,inactive: 0.074,inactive: 0.072,inactive: -0.014,inactive: 0.049,inactive: -0.047
CALR (UniProt P27797),inactive: -0.023,inactive: 0.027,inactive: 0.008,inactive: 0.051,inactive: -0.072,inactive: 0.006,inactive: 0.003,inactive: -0.001,inactive: -0.009,inactive: -0.04,inactive: -0.002,inactive: 0.078,inactive: -0.092,inactive: 0.056,inactive: -0.043,inactive: -0.01,inactive: 0.02,inactive: 0.019,inactive: 0.007,inactive: 0.014
C15orf40 (UniProt Q8WUR7),inactive: -0.056,inactive: 0.014,inactive: -0.022,inactive: 0.01,inactive: -0.009,inactive: 0.058,inactive: -0.029,inactive: 0.077,inactive: -0.051,inactive: -0.124,inactive: 0.094,inactive: 0.128,inactive: 0.034,inactive: 0.096,inactive: 0.007,inactive: -0.138,inactive: -0.073,inactive: -0.034,inactive: -0.03,inactive: 0.026
BUD31 (UniProt P41223),inactive: 0.044,inactive: -0.057,inactive: 0.035,inactive: -0.017,inactive: -0.052,inactive: 0.089,inactive: -0.064,inactive: -0.077,inactive: 0.003,inactive: 0.069,inactive: -0.037,inactive: -0.016,inactive: 0.012,inactive: -0.097,inactive: 0.02,inactive: 0.027,inactive: 0.027,inactive: 0.018,inactive: -0.046,inactive: -0.049
C12orf73 (UniProt Q69YU5),inactive: -0.032,inactive: 0.062,inactive: 0.074,,inactive: -0.119,inactive: -0.12,inactive: 0.049,inactive: 0.01,inactive: -0.05,inactive: -0.08,inactive: 0.018,inactive: 0.043,inactive: 0.188,inactive: -0.017,inactive: 0.069,inactive: -0.047,inactive: -0.104,inactive: 0.009,inactive: -0.015,inactive: 0.116
BST2 (UniProt Q10589),inactive: -0.064,inactive: -0.05,inactive: 0.041,inactive: -0.044,inactive: -0.059,inactive: -0.028,inactive: -0.022,inactive: 0.007,inactive: 0.038,inactive: 0.036,inactive: -0.023,inactive: 0.066,inactive: 0.006,inactive: -0.055,,inactive: -0.016,,inactive: -0.074,inactive: 0.023,inactive: -0.078
C9orf64 (UniProt Q5T6V5),inactive: 0.07,inactive: -0.091,inactive: 0.038,inactive: -0.062,inactive: 0.078,inactive: -0.079,inactive: -0.062,inactive: -0.022,inactive: 0.043,inactive: -0.055,inactive: 0.049,inactive: -0.329,inactive: 0.091,inactive: 0,,inactive: -0.128,,inactive: 0.097,inactive: -0.005,inactive: -0.207
C22orf39 (UniProt Q6P5X5),inactive: 0.02,inactive: -0.043,inactive: -0.014,inactive: 0.119,inactive: -0.025,inactive: -0.344,inactive: 0.058,inactive: -0.006,inactive: 0.077,,inactive: 0.075,inactive: -0.303,inactive: 0.06,inactive: -0.057,,,,inactive: -0.135,inactive: 0.072,inactive: -0.207
C3orf38 (UniProt Q5JPI3),inactive: 0.102,inactive: 0.215,inactive: 0.006,inactive: 0.172,inactive: -0.04,inactive: 0.094,inactive: -0.046,inactive: -0.093,inactive: -0.074,,inactive: -0.13,inactive: -0.027,inactive: -0.075,inactive: 0.001,inactive: -0.041,,inactive: -0.015,inactive: 0.159,inactive: 0.015,inactive: -0.08
CALB1 (UniProt P05937),inactive: 0.029,inactive: -0.192,inactive: 0.006,inactive: -0.024,inactive: -0.022,inactive: -0.071,inactive: -0.024,inactive: 0.015,inactive: 0.013,inactive: 0.027,inactive: 0.033,inactive: -0.166,inactive: 0.015,inactive: -0.039,,inactive: -0.038,,inactive: 0.017,inactive: -0.006,inactive: -0.105
C16orf58 (UniProt Q96GQ5),inactive: -0.059,inactive: -0.148,inactive: -0.043,inactive: -0.053,inactive: -0.009,inactive: -0.009,inactive: 0.044,inactive: 0.037,inactive: 0.004,inactive: 0.015,inactive: 0.011,inactive: -0.057,inactive: 0.126,inactive: 0,,inactive: -0.08,,inactive: -0.035,inactive: 0.006,active: -0.309
C9orf72 (UniProt Q96LT7),inactive: -0.06,inactive: -0.054,inactive: -0.115,inactive: -0.026,inactive: 0.062,inactive: -0.013,inactive: -0.034,inactive: -0.062,inactive: 0.062,inactive: -0.015,inactive: 0.058,inactive: -0.134,inactive: -0.024,inactive: -0.048,,active: -0.313,,inactive: 0.057,inactive: 0.01,inactive: 0.04
C19orf53 (UniProt Q9UNZ5),inactive: -0.225,inactive: 0.375,inactive: 0.042,inactive: 0.209,inactive: -0.086,inactive: -0.067,inactive: -0.045,inactive: -0.167,inactive: 0.184,inactive: -0.073,inactive: -0.125,inactive: 0.092,inactive: -0.553,inactive: 0.404,,inactive: 0.316,,inactive: 0.03,inactive: 0.174,inactive: -0.13
C4orf33 (UniProt Q8N1A6),inactive: -0.055,inactive: 0.072,inactive: -0.009,inactive: -0.054,inactive: -0.17,inactive: -0.026,inactive: 0.029,inactive: 0.061,inactive: 0,inactive: 0.049,inactive: 0.025,inactive: -0.098,inactive: 0.001,inactive: -0.209,,inactive: 0.019,,inactive: 0.005,inactive: -0.003,inactive: -0.038
C12orf65 (UniProt Q9H3J6),inactive: -0.132,inactive: 0.082,inactive: 0.031,inactive: 0.131,inactive: -0.189,,inactive: 0.003,inactive: -0.153,,,inactive: -0.316,inactive: -0.011,,inactive: 0.231,inactive: -0.106,,,inactive: 0.056,inactive: 0.07,inactive: 0.012
C15orf41 (UniProt Q9Y2V0),inactive: -0.057,inactive: -0.021,inactive: -0.096,inactive: -0.023,,inactive: 0.011,,,inactive: -0.018,inactive: 0.047,inactive: 0.057,inactive: -0.01,inactive: 0.074,inactive: 0.023,,inactive: -0.027,,inactive: -0.004,inactive: 0.08,inactive: -0.2
CAMSAP1 isoform 3 (UniProt Q5T5Y3),inactive: 0.011,inactive: -0.015,inactive: 0.045,inactive: 0.091,inactive: 0.039,inactive: 0.169,inactive: -0.034,inactive: 0.056,inactive: 0.095,inactive: 0.118,inactive: 0.05,inactive: -0.11,inactive: 0.073,inactive: 0.041,,inactive: -0.039,,inactive: 0.02,inactive: 0.008,inactive: -0.124

# Quoted at random: 2 entries already listed.
Target,log2 fold change [1],log2 fold change (filanesib),log2 fold change (zotarolimus),log2 fold change (idasanutlin),log2 fold change (alisertib),log2 fold change [2],log2 fold change (gefitinib),log2 fold change [3],log2 fold change (lapatinib),log2 fold change (pictilisib),log2 fold change [4],log2 fold change (crizotinib),log2 fold change [5],log2 fold change [6],log2 fold change (duvelisib),log2 fold change (gandotinib),log2 fold change (tozasertib),log2 fold change [7],log2 fold change (doramapimod),log2 fold change (ispinesib)
C15orf41 (UniProt Q9Y2V0),inactive: -0.057,inactive: -0.021,inactive: -0.096,inactive: -0.023,,inactive: 0.011,,,inactive: -0.018,inactive: 0.047,inactive: 0.057,inactive: -0.01,inactive: 0.074,inactive: 0.023,,inactive: -0.027,,inactive: -0.004,inactive: 0.08,inactive: -0.2
C9orf64 (UniProt Q5T6V5),inactive: 0.07,inactive: -0.091,inactive: 0.038,inactive: -0.062,inactive: 0.078,inactive: -0.079,inactive: -0.062,inactive: -0.022,inactive: 0.043,inactive: -0.055,inactive: 0.049,inactive: -0.329,inactive: 0.091,inactive: 0,,inactive: -0.128,,inactive: 0.097,inactive: -0.005,inactive: -0.207
